Test results as given in patent US6387909B1, “Thienopyranecarboxamide derivatives” (Recordati S.A. Chemical and Pharmaceutical Company, priority 1999, dated 2002).

Tested on: prostatic urethral contractions induced by noradrenaline
Experiment: Urethral contractions induced by noradrenaline injection in anaesthetized dogs after intravenous administration
Format: in vivo
Conditions: dog, i.v.; DBP ED25 / UC ID50
Protocol: The experiments were performed according to the method of Imagawa et al. (J. Pharmacol. Methods, 22:103-111, 1989), with substantial modifications, as follows: adult male beagle dogs, weighing 8-10 kg, were anaesthetized with pentobarbital sodium (30 mg/kg i.v. and 2 mg/kg/h i.v.), intubated and spontaneously ventilated with room air. In order to monitor systemic blood pressure (BP), a polyethylene (PE) catheter was introduced into the aortic arch through the left femoral artery. A collateral of the left femoral vein was cannulated for infusion of anaesthetic, and the right femoral vein was cannulated for administration of compounds. For intraarterial (i.a.) injection of noradrenaline (NA), a PE catheter was introduced into the lower portion of the abdominal aorta via the right external iliac artery. Through such procedure, NA was selectively distributed to the lower urinary tract. […] Prostatic urethral pressure was monitored with a Mikro-tip catheter (5F) introduced into the bladder via the external urethral meatus, and withdrawn until the pressure transducer was positioned in the prostatic region of the urethra. […]
After a stabilizing period following the surgical procedure (30 minutes), in which arterial and prostatic urethral pressures were continuously monitored as basal values, i.a. administration of NA was made at intervals of 20 minutes. […]

| Structure (SMILES) | Ratio (DBP/US) between the active doses |
| --- | --- |
| COc1ccccc1N1CCN(CCCNC(=O)c2csc3c(=O)cc(-c4ccccc4)oc23)CC1 [Example 2, N-{3-[4-(2-Methoxyphenyl)-1-piperazinyl]propyl}-7-oxo-5-phenyl-7H-thieno[3,2-b]pyran-3-carboxamide] | 19.7 |
| O=C(NCCCN1CCN(c2ccccc2OCC(F)(F)F)CC1)c1csc2c(=O)cc(-c3ccccc3)oc12 [Example 5, 7-Oxo-5-phenyl-N-{3-[4-[2-(2,2,2-trifluoroethoxy)phenyl]-1-piperazinyl]propyl}-7H-thieno[3,2-b]pyran-3-carboxamide] | >370 |
